# Test results published in publication PMC12463027, “KRAS/ABHD17C/ALOX15B Axis Promotes Pancreatic Cancer Progression via Ferroptosis Evasion” (Advanced Science, 2025).
# The chains behind the UniProt entries cited, without tags or fusion partners.
# UniProt P46379: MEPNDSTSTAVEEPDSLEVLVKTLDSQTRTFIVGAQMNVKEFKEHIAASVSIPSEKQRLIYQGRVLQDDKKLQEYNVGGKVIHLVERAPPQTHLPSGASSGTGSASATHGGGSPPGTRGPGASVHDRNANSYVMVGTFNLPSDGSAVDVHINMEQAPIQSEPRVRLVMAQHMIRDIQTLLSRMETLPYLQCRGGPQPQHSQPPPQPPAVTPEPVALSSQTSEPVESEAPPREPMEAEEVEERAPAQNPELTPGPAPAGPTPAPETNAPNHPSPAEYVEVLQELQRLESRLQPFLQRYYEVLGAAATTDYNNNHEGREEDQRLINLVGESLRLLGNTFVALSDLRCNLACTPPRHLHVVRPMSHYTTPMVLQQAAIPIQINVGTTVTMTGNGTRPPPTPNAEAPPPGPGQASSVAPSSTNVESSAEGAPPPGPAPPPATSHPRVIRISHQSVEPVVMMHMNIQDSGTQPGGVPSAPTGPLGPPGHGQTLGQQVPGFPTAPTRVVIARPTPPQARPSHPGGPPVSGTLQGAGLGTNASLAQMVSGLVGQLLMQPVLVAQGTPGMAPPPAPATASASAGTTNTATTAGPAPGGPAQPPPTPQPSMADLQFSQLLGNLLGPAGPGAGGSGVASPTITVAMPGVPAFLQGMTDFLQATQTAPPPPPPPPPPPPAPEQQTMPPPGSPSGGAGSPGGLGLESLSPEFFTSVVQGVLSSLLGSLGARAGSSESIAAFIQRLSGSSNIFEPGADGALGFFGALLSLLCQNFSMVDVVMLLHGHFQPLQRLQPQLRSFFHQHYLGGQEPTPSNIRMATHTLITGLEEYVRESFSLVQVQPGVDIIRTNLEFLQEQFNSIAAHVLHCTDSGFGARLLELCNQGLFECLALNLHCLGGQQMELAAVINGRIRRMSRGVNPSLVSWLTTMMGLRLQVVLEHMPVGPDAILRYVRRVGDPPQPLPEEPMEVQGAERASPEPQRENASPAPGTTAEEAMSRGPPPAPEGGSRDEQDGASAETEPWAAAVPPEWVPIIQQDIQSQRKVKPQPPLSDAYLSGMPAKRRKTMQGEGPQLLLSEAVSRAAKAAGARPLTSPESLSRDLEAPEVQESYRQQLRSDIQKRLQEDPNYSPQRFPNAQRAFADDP
# UniProt P11413: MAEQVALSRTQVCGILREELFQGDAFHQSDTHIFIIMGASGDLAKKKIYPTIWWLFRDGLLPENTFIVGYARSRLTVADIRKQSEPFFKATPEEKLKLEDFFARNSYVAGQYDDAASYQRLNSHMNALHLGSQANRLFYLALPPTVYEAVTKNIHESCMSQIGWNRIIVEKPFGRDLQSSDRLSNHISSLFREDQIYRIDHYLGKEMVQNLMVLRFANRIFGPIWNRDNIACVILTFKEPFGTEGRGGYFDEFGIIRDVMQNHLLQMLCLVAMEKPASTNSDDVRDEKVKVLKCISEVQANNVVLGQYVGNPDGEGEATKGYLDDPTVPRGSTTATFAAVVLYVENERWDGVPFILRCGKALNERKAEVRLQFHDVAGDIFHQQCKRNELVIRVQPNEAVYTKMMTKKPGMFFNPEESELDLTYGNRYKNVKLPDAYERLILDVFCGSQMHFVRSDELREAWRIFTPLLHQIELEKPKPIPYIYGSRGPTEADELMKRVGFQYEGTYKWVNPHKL
# UniProt P25685: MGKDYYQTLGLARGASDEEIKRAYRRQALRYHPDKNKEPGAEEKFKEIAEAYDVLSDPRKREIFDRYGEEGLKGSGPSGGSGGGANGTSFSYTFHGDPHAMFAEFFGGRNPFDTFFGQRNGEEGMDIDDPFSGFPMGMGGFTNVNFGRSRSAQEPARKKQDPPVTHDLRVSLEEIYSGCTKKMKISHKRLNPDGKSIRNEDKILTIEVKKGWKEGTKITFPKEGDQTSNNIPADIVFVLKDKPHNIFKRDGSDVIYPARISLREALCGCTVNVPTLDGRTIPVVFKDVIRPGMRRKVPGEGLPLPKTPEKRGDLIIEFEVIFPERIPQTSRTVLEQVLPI
# These are yes or no findings as the source states them, for the method shown. In cells and extracts the contact can be indirect. A yes stands for co-enrichment or nearness to the bait. Other partners may have been found.
# T1: arachidonate 15-lipoxygenase (ALOX15B), in PDAC cells (human) (UniProt O15296)
# T1 sequence: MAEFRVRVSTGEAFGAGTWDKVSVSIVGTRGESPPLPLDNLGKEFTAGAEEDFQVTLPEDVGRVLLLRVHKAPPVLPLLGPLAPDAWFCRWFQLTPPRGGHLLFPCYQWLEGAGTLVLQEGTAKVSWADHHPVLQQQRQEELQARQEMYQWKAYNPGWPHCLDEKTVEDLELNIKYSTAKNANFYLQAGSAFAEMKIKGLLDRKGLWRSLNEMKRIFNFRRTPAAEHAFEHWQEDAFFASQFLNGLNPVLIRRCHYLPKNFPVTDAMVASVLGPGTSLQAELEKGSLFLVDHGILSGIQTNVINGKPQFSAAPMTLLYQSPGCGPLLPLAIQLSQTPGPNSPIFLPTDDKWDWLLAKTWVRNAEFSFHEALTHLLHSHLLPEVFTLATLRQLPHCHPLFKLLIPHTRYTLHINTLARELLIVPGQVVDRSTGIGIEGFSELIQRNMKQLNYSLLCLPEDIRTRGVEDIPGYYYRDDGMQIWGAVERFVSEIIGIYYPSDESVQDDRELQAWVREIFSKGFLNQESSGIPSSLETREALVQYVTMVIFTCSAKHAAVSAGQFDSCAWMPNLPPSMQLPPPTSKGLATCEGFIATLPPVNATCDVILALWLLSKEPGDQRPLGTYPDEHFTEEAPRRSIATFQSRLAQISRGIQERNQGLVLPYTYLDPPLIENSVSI
# B1: recombinant DCAF10 (natural protein, UniProt Q5QP82 1-559, looked up)
# chain: MFPFGPHSPGGDGSAGAGAEEPTPHEGQAAATGPPSPLHPGADATHPPPPARSPRRPGAPSLSPAPRSGELGLPGAPESSTASAPGEPSPPSPPCRRPGPDCRAKSRGRHGLGAGLGGPGARLFGWLKERSLGRGLFVDPARDNFRTMTSLYGSIHPADSVYLSTRTHGAVFNLEYSPDGSVLTVACEQTEVLLFDPISSKHIKTLSEAHEDCVNNIRFLDNRLFATCSDDTTIALWDLRKLNTKVCTLHGHTSWVKNIEYDTNTRLLVTSGFDGNVIIWDTNRYTEDGCPHKKFFHTRFLMRMRLTPDCSKMLISTSSGYLLILHDLDLTKSLEVGSYPILRARRTTSSSDLTTSSSSSGPRVSGSPCHHSDSNSSEKHMSRASQREGVSPRNSLEVVTPEVLGESDHGNCITSLQLHPKGWATLLRCSSNSDDEECTCVYEFQEGAPVRPVSPRCSLRLTHYIEEANVGRGYIKELCFSPDGRMISSPHGYGIRLLGFDKQCSELVDCLPKEASPLRVIRSLYSHNDVVLTTKFSPTHCQIASGCLSGRVSLYQPKF
# notes: DCAF10, recombinant
# B2: ABHD17C, in PDAC cells (enzyme, UniProt Q6PCB6 1-329)
# chain: MPEPGPRMNGFSLGELCWLFCCPPCPSRIAAKLAFLPPEPTYTVLAPEQRGAGASAPAPAQATAAAAAAQPAPQQPEEGAGAGPGACSLHLSERADWQYSQRELDAVEVFFSRTARDNRLGCMFVRCAPSSRYTLLFSHGNAVDLGQMCSFYIGLGSRINCNIFSYDYSGYGVSSGKPSEKNLYADIDAAWQALRTRYGVSPENIILYGQSIGTVPTVDLASRYECAAVILHSPLMSGLRVAFPDTRKTYCFDAFPSIDKISKVTSPVLVIHGTEDEVIDFSHGLAMYERCPRAVEPLWVEGAGHNDIELYAQYLERLKQFISHELPNS
# B3: ABHD17B (protein, UniProt Q5VST6 1-288)
# chain: MNNLSFSELCCLFCCPPCPGKIASKLAFLPPDPTYTLMCDESGSRWTLHLSERADWQYSSREKDAIECFMTRTSKGNRIACMFVRCSPNAKYTLLFSHGNAVDLGQMSSFYIGLGSRINCNIFSYDYSGYGASSGKPTEKNLYADIEAAWLALRTRYGIRPENVIIYGQSIGTVPSVDLAARYESAAVILHSPLTSGMRVAFPDTKKTYCFDAFPNIDKISKITSPVLIIHGTEDEVIDFSHGLALFERCQRPVEPLWVEGAGHNDVELYGQYLERLKQFVSQELVNL
# Biological target: T1, arachidonate 15-lipoxygenase (ALOX15B), in PDAC cells (human)
# Assay: affinity purification with mass spectrometry; affinity purification of ALOX15B from KRAS^mut-PDAC and KRAS^wt-PDAC cells, quantitative proteomics (IP-MS)
row,binding,Molecule
1,binds,BAG6 (from UniProt P46379 1-1132)
2,binds,G6PD (from UniProt P11413 1-515)
3,binds,DNAJB1 (from UniProt P25685 1-340)
4,binds,B1
5,binds,B2
6,binds,B3
